Experimental data as given in the supplement of paper PMC10849652.
This is one part of the list.

By UniProt entry, the sequences of proteins in these tests, tags left out. Where a name states a change or a piece, a line headed by the entry shows the natural chain unless it says otherwise.
UniProt Q13303: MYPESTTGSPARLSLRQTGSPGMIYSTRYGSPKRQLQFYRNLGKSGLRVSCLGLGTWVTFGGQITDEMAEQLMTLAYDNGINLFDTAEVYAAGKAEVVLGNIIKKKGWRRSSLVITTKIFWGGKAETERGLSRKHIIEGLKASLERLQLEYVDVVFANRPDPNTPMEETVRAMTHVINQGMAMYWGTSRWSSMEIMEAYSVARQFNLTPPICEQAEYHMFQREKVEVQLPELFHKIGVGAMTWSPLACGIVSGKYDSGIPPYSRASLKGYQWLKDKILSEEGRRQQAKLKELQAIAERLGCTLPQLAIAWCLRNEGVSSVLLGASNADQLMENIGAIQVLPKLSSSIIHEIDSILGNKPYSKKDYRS
UniProt Q8IYS2: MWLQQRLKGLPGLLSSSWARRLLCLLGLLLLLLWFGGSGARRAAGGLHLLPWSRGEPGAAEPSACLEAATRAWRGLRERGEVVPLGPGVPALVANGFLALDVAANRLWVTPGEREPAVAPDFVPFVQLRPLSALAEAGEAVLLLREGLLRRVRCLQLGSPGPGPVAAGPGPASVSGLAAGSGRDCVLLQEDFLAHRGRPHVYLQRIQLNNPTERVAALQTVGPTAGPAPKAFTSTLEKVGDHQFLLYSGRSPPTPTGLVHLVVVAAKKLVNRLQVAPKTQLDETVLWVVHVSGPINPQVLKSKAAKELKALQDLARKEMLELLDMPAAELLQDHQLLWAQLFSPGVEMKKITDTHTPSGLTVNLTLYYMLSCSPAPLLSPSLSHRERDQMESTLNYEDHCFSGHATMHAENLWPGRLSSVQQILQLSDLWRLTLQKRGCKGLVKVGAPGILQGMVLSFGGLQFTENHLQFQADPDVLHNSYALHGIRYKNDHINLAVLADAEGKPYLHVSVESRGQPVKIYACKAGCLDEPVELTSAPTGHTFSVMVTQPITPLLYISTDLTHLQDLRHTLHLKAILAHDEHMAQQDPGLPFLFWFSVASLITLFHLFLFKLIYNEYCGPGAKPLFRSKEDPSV
UniProt Q8N371: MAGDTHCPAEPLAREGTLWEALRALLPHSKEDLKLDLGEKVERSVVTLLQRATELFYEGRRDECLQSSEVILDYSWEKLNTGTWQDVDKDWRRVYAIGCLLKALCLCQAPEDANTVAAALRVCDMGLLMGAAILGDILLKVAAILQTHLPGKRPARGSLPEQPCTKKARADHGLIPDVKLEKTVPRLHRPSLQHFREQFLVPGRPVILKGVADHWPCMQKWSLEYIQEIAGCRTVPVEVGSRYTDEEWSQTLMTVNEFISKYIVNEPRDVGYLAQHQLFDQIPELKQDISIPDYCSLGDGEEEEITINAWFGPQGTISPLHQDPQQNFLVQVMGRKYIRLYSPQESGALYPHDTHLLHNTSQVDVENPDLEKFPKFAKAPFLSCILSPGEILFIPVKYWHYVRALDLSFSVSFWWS
UniProt Q674X7: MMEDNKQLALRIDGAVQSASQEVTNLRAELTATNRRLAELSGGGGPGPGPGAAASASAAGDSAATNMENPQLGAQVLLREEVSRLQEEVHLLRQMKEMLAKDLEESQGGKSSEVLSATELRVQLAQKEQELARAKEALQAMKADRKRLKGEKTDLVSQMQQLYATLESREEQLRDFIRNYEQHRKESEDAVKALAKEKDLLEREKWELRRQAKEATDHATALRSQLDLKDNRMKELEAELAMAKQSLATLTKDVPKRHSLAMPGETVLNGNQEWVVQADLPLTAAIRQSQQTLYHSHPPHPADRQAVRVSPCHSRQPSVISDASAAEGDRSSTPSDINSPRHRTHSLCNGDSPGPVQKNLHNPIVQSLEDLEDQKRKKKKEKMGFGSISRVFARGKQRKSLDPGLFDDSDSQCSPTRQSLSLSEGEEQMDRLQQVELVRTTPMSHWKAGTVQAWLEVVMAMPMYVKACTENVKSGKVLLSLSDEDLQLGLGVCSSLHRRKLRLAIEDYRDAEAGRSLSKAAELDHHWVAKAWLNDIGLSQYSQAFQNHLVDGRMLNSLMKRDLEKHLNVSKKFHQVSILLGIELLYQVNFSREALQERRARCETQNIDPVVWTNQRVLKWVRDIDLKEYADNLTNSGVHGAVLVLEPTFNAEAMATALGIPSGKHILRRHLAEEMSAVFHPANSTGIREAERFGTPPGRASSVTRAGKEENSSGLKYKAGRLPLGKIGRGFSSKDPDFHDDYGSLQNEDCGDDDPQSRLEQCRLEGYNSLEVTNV
UniProt Q7L273: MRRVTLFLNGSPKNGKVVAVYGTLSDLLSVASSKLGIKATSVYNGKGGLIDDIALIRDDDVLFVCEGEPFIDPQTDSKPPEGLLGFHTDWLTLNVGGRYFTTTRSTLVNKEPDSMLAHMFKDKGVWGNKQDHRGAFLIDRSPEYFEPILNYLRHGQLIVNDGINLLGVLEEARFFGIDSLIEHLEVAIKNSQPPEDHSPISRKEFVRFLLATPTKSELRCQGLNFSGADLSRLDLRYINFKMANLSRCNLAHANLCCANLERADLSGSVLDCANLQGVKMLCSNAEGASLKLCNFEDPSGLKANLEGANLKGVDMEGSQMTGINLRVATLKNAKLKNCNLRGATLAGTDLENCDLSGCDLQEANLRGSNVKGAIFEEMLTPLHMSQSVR
UniProt Q8N5M9: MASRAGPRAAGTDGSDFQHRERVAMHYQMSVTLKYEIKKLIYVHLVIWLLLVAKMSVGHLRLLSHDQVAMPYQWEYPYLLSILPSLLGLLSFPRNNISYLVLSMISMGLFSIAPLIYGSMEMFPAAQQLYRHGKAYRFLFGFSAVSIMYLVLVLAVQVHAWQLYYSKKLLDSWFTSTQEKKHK
UniProt Q8IZA0: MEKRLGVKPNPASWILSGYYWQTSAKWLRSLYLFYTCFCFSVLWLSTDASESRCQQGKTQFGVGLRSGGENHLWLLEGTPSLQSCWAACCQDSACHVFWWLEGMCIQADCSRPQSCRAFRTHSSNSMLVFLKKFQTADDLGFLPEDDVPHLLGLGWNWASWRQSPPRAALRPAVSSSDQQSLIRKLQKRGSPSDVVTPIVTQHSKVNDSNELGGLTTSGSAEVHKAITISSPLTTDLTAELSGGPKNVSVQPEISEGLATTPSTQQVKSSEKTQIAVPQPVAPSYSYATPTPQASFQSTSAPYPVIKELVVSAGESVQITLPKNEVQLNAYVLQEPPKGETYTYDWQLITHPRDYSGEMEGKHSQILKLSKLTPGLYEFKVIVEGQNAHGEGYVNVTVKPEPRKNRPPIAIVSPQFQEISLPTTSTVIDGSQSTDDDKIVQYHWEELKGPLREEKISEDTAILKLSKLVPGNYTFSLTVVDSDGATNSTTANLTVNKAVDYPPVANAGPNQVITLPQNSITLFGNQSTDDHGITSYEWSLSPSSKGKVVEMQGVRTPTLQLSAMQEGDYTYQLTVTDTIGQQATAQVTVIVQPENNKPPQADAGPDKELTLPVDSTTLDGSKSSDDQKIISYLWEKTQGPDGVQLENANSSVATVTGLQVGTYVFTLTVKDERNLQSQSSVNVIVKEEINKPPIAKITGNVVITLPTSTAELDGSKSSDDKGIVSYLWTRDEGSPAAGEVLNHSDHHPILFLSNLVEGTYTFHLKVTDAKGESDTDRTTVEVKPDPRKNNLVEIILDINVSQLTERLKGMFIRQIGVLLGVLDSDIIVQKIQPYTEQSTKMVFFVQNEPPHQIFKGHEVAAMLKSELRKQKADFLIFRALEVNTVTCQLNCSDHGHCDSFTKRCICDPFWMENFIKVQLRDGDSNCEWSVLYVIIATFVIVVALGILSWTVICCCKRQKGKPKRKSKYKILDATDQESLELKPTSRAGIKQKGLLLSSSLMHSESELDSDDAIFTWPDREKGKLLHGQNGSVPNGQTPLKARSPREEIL
UniProt Q9Y6Y0: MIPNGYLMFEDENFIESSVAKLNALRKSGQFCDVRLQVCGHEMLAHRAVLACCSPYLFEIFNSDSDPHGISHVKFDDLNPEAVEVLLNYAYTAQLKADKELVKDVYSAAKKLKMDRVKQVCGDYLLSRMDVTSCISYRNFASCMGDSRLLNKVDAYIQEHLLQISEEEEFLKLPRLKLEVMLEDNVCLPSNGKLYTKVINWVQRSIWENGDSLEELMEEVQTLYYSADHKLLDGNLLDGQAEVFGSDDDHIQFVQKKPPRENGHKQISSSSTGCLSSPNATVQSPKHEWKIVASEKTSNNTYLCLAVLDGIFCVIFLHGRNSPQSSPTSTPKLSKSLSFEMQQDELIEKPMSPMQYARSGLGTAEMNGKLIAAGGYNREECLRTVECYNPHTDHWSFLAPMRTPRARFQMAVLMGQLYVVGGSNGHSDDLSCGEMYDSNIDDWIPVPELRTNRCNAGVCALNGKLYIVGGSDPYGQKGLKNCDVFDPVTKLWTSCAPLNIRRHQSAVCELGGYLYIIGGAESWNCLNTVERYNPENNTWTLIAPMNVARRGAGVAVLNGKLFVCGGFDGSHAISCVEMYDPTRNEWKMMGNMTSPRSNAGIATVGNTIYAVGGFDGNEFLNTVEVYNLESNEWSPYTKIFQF
UniProt Q9P206: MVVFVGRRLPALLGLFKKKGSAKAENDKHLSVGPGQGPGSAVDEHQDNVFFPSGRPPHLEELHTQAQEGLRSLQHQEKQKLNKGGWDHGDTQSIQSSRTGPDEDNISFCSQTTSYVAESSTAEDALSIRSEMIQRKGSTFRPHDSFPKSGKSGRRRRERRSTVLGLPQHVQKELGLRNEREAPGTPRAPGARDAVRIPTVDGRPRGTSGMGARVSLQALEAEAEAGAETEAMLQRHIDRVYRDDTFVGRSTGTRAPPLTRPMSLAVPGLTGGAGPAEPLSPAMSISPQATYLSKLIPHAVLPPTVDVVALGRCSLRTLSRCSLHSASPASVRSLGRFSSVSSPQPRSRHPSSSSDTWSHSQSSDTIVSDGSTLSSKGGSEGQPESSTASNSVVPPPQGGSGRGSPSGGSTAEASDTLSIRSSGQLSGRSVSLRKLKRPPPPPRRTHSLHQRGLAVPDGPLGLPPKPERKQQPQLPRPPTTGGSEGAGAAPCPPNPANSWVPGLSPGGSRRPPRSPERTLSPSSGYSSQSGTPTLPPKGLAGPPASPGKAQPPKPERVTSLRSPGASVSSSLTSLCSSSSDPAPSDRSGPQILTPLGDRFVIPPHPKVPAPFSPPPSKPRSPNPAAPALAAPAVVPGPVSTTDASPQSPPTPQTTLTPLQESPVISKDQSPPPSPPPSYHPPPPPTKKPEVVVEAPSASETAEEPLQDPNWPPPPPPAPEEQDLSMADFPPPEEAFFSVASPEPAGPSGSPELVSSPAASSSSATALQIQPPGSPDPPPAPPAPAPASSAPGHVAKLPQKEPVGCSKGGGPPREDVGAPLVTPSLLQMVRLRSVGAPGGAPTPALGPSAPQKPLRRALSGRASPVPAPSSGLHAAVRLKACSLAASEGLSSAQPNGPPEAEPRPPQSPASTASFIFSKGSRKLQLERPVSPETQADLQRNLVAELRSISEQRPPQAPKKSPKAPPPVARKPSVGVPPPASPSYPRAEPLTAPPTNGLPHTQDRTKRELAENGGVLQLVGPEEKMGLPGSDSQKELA
UniProt Q9BQ90: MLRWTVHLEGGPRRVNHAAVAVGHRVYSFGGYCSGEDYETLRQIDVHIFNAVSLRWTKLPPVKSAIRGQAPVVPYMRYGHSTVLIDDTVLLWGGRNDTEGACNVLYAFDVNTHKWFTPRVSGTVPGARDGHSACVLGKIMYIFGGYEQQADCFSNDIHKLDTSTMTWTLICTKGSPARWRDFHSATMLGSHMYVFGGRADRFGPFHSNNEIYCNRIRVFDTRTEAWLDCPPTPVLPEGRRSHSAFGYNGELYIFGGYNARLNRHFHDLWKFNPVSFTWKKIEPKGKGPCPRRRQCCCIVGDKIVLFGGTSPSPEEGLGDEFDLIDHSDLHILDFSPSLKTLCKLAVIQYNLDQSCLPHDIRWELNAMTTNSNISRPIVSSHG
UniProt Q07866: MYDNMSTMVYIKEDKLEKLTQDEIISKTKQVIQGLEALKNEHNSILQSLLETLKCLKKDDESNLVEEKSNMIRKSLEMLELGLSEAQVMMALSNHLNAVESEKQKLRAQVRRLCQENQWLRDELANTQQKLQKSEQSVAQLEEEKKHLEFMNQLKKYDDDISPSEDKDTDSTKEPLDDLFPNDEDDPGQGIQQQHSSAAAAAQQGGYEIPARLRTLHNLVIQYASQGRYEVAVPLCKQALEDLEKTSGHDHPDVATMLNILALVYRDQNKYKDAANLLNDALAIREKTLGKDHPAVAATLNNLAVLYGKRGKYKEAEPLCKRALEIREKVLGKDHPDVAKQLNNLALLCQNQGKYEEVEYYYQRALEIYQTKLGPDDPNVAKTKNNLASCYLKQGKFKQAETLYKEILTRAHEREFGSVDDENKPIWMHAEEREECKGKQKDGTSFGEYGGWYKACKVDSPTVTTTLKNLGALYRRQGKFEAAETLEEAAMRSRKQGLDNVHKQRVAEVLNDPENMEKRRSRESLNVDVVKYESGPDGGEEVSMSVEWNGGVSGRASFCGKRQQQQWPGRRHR
UniProt O76095: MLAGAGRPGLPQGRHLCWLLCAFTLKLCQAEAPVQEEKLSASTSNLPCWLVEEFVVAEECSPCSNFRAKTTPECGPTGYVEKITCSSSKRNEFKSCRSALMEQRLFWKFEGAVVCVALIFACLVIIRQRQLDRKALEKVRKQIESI

Key:
Test in all cases: log2 fold change, soluble protein after heating vs DMSO (PISA); higher = thermal stabilisation; K562 cells, 10 uM, 30 min; active = over 0.2 and 3.5 SD of the protein, either way, in both replicates (recomputed)
[1] = compound: CS(=O)(=O)c1ccc(-c2cnc(N)c(C(=O)Nc3ccccc3)n2)cc1
How it was run: (§1)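 Soluble protein was defined as the supernatant after 21,000xg for 90 min. It came from K562 cells at 2×10^6 cells/mL given 10 μM compound for 30 min, heated in aliquots for 3 min across 48°C-58°C, pooled, and extracted in PBS with 0.5% NP-40 at 4°C, and was quantified by TMTpro 16plex LC-MS/MS with equalised channel sums. Thermal stability against control samples, from duplicates, is reported as log2 fold change.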

[2] = compound: C[C@@H](Oc1cc(-c2cnn(C3CCNCC3)c2)cnc1N)c1c(Cl)ccc(F)c1Cl [crizotinib]
How it was run: as §1

[3] = compound: C[C@@H]1COCCN1C2=NC(=NC(=C2)C3(CC3)S(=O)(=O)C)C4=C5C=CNC5=CC=C4
How it was run: as §1

[4] = compound: C[C@H](C1=CC=C(C=C1)C(=O)NC2=C3C=CNC3=NC=C2)N
How it was run: as §1

[5] = compound: C[C@H](Nc1ncnc2nc[nH]c12)c1cc2cccc(Cl)c2c(=O)n1-c1ccccc1 [duvelisib]
How it was run: as §1

[6] = compound: Cc1cc(Nc2cc(CN3CCOCC3)c3nc(C)c(Cc4ccc(Cl)cc4F)n3n2)n[nH]1 [gandotinib]
How it was run: as §1

[7] = compound: Cc1cc(Nc2cc(N3CCN(C)CC3)nc(Sc3ccc(NC(=O)C4CC4)cc3)n2)n[nH]1 [tozasertib]
How it was run: as §1

[8] = compound: Cc1cc(SCc2sc(-c3ccc(C(F)(F)F)cc3)nc2C)ccc1OCC(=O)O
How it was run: as §1

[9] = compound: Cc1ccc(-n2nc(C(C)(C)C)cc2NC(=O)Nc2ccc(OCCN3CCOCC3)c3ccccc23)cc1 [doramapimod]
How it was run: as §1

[10] = compound: Cc1ccc(C(=O)N(CCCN)[C@@H](c2nc3cc(Cl)ccc3c(=O)n2Cc2ccccc2)C(C)C)cc1 [ispinesib]
How it was run: as §1

[11] = compound: Cc1ccc(NC(=O)c2ccc(CN3CC[C@H](N(C)C)C3)c(C(F)(F)F)c2)cc1Nc1nccc(-c2cncnc2)n1 [bafetinib]
How it was run: as §1

[12] = compound: Cc1cccc(CC(=O)N2CCc3c2ccc(-c2cn(C)c4ncnc(N)c24)c3F)n1
How it was run: as §1

[13] = compound: Cc1cn(-c2cc(NC(=O)c3ccc(C)c(Nc4nccc(-c5cccnc5)n4)c3)cc(C(F)(F)F)c2)cn1 [nilotinib]
How it was run: as §1

[14] = compound: Cc1nc(Nc2n[nH]c3c2CN(C(=O)N[C@H](CN(C)C)c2ccccc2)C3(C)C)c2sccc2n1
How it was run: as §1

[15] = compound: Cc1nc(Nc2ncc(C(=O)Nc3c(C)cccc3Cl)s2)cc(N2CCN(CCO)CC2)n1 [dasatinib]
How it was run: as §1

[16] = compound: Cc1ncc(-c2ccnc(Nc3ccc(S(C)(=O)=O)cc3)n2)n1C(C)C
How it was run: as §1

[17] = compound: Cn1cc(-c2ccc3c(c2)CCN3C(=O)Cc2cccc(C(F)(F)F)c2)c2c(N)ncnc21
How it was run: as §1

[18] = compound: Cn1cc(-c2ccc3nnc(C(F)(F)c4ccc5ncccc5c4)n3n2)cn1
How it was run: as §1

[19] = compound: Cn1cncc1[C@@](N)(c1ccc(Cl)cc1)c1ccc2c(c1)c(-c1cccc(Cl)c1)cc(=O)n2C [tipifarnib]
How it was run: as §1

[20] = compound: FC(F)(F)c1ccc(/C=C/c2nc(COc3ccc(CCCCn4ccnn4)cc3)co2)cc1 [mubritinib]
How it was run: as §1

Measured: log2 fold change

KCNAB2 (UniProt Q13303)
inactive: [1] 0.008 | [2] 0.035 | [3] 0.021 | [4] 0.018 | [5] 0.009 | [6] -0.045 | [7] 0.031 | [8] 0.003 | [9] -0.06 | [10] -0.01 | [11] -0.159 | [12] -0.047 | [13] -0.026 | [14] 0.123 | [15] -0.025 | [16] -0.002 | [17] -0.018 | [18] -0.002 | [19] -0.054 | [20] 0.03

KIAA2013 isoform 2 (UniProt Q8IYS2)
inactive: [1] -0.023 | [2] 0.071 | [3] 0.046 | [4] -0.029 | [5] 0.035 | [6] 0.069 | [7] -0.033 | [8] -0.01 | [9] 0.006 | [10] 0.013 | [11] -0.07 | [12] -0.022 | [13] -0.006 | [14] 0.004 | [15] 0.011 | [16] -0.008 | [17] 0.022 | [18] 0.003 | [19] 0.065 | [20] 0.017

KPNA2 (UniProt P52292)
inactive: [1] 0.085 | [2] -0.068 | [3] -0.285 | [4] 0.357 | [5] -0.152 | [6] -0.011 | [7] -0.019 | [8] 0.106 | [9] 0.302 | [10] -0.29 | [11] 0.127 | [12] 0.028 | [13] -0.077 | [14] -0.103 | [15] 0.016 | [16] -0.086 | [17] -0.238 | [18] -0.174 | [19] 0.081 | [20] -0.125

KIF23 (UniProt Q02241)
inactive: [1] 0.036 | [2] -0.165 | [3] -0.005 | [4] -0.087 | [5] -0.056 | [6] -0.031 | [7] 0.03 | [8] 0.076 | [9] -0.069 | [10] -0.205 | [11] -0.077 | [12] 0.013 | [13] 0.034 | [14] -0.298 | [15] -0.058 | [16] 0.033 | [17] 0.044 | [18] -0.089 | [19] 0.177 | [20] 0.032

KATNB1 (UniProt Q9BVA0)
inactive: [1] 0.017 | [2] -0.109 | [3] -0.087 | [4] 0.053 | [5] 0.034 | [6] -0.111 | [7] 0.004 | [8] 0.011 | [9] 0.046 | [10] -0.028 | [11] 0.062 | [12] 0.011 | [13] 0.021 | [14] -0.116 | [15] -0.12 | [16] -0.033 | [17] -0.018 | [18] 0.01 | [19] -0.072 | [20] 0.01

KDM8 isoform 3 (UniProt Q8N371)
inactive: [1] 0.016 | [2] 0.053 | [3] 0.114 | [4] -0.089 | [5] 0.026 | [6] -0.094 | [7] 0.051 | [8] 0.034 | [9] -0.069 | [10] 0.043 | [11] -0.016 | [12] 0.012 | [13] -0.007 | [14] -0.023 | [15] -0.035 | [16] -0.028 | [17] 0.035 | [18] -0.005 | [19] -0.015 | [20] 0.029

KAZN isoform 3 (UniProt Q674X7)
inactive: [1] -0.082 | [2] -0.009 | [3] -0.078 | [4] -0.076 | [5] 0.031 | [6] -0.058 | [7] -0.033 | [8] 0.003 | [9] 0.005 | [10] 0.036 | [11] 0.01 | [12] -0.052 | [13] 0.065 | [14] 0.06 | [15] -0.022 | [16] -0.078 | [17] -0.005 | [18] 0.009 | [19] -0.027 | [20] 0.091

Two consecutive records from above, for reference:
KDM8 isoform 3 (UniProt Q8N371)
inactive: [1] 0.016 | [2] 0.053 | [3] 0.114 | [4] -0.089 | [5] 0.026 | [6] -0.094 | [7] 0.051 | [8] 0.034 | [9] -0.069 | [10] 0.043 | [11] -0.016 | [12] 0.012 | [13] -0.007 | [14] -0.023 | [15] -0.035 | [16] -0.028 | [17] 0.035 | [18] -0.005 | [19] -0.015 | [20] 0.029

KAZN isoform 3 (UniProt Q674X7)
inactive: [1] -0.082 | [2] -0.009 | [3] -0.078 | [4] -0.076 | [5] 0.031 | [6] -0.058 | [7] -0.033 | [8] 0.003 | [9] 0.005 | [10] 0.036 | [11] 0.01 | [12] -0.052 | [13] 0.065 | [14] 0.06 | [15] -0.022 | [16] -0.078 | [17] -0.005 | [18] 0.009 | [19] -0.027 | [20] 0.091

The list goes on.

KCTD9 (UniProt Q7L273)
inactive: [1] 0.022 | [2] 0.036 | [3] -0.052 | [4] -0.115 | [5] 0.095 | [6] 0.015 | [7] 0.026 | [8] -0.013 | [9] -0.02 | [10] 0.114 | [11] -0.035 | [12] -0.04 | [13] 0.091 | [14] -0.04 | [15] -0.032 | [16] -0.009 | [17] 0.05 | [18] 0.023 | [19] -0.013 | [20] 0.048

JAGN1 (UniProt Q8N5M9)
inactive: [1] 0 | [2] 0.079 | [3] 0.117 | [4] -0.079 | [5] 0.08 | [6] -0.05 | [7] 0.011 | [8] 0.011 | [9] -0.031 | [10] 0.182 | [11] -0.061 | [12] -0.152 | [13] 0.015 | [14] 0.053 | [15] 0.06 | [16] -0.039 | [17] 0.068 | [18] 0.079 | [19] -0.059 | [20] 0.005

KIAA0319L (UniProt Q8IZA0)
inactive: [1] 0.006 | [2] -0.13 | [3] -0.046 | [4] -0.017 | [5] -0.014 | [6] 0.013 | [7] -0.018 | [8] -0.03 | [9] 0.013 | [10] -0.17 | [11] -0.052 | [12] -0.049 | [13] 0.009 | [14] 0.008 | [15] 0.012 | [16] -0.003 | [17] 0.012 | [18] 0.032 | [19] 0.029 | [20] 0.02

KCTD21 (UniProt Q4G0X4)
inactive: [1] 0.11

IVNS1ABP (UniProt Q9Y6Y0)
inactive: [1] 0.054 | [2] 0.416 | [3] -0.125 | [4] 0.192 | [5] 0.004 | [6] -0.055 | [7] 0.011 | [8] 0.055 | [9] -0.001 | [10] -0.048 | [11] 0.157 | [12] 0.1 | [13] -0.079 | [14] -0.051 | [15] -0.146 | [16] -0.003 | [17] -0.008 | [18] 0.067 | [19] -0.051 | [20] -0.113

KIAA1522 isoform 2 (UniProt Q9P206)
inactive: [1] 0.017 | [2] -0.097 | [3] -0.278 | [4] -0.125 | [5] -0.084 | [6] 0.01 | [7] -0.016 | [8] 0.061 | [9] 0.104 | [10] -0.196 | [11] 0.049 | [12] 0.028 | [13] 0.03 | [14] -0.078 | [15] -0.018 | [16] -0.027 | [17] 0.027 | [18] -0.053 | [19] 0.14 | [20] -0.009

KCTD3 (UniProt Q9Y597)
inactive: [1] 0.031 | [2] -0.013 | [3] 0.069 | [4] 0.147 | [5] 0.065 | [6] 0.084 | [7] -0.049 | [8] -0.047 | [9] -0.006 | [10] -0.093 | [11] -0.054 | [12] -0.043 | [13] -0.036 | [14] 0.062 | [15] 0.14 | [16] -0.033 | [17] -0.013 | [18] 0.025 | [19] -0.001 | [20] 0.003

KLHDC3 (UniProt Q9BQ90)
inactive: [1] 0.057 | [2] 0.052 | [3] 0.032 | [4] 0.088 | [5] 0.02 | [6] -0.208 | [7] 0.028 | [8] 0.051 | [9] -0.047 | [10] 0 | [11] -0.166 | [12] 0.003 | [13] 0.029 | [14] 0.007 | [15] 0.173 | [16] -0.008 | [17] -0.042 | [18] 0.009 | [19] 0.04

KLC1 isoform 6 (UniProt Q07866)
inactive: [1] 0.015 | [2] -0.052 | [3] 0.07 | [4] -0.013 | [5] 0.057 | [6] -0.084 | [7] -0.007 | [8] -0.005 | [9] 0.013 | [10] 0.01 | [11] 0.009 | [12] 0 | [13] -0.005 | [14] -0.077 | [15] -0.025 | [16] -0.01 | [17] 0.027 | [18] 0.024 | [19] -0.023 | [20] 0.049

JTB (UniProt O76095)
inactive: [1] -0.012 | [2] -0.016 | [3] -0.012 | [4] 0.14 | [5] -0.013 | [7] 0.021 | [8] -0.065 | [9] -0.047 | [11] 0.009 | [13] 0.047 | [14] -0.089 | [15] -0.028 | [16] -0.027 | [17] -0.098 | [19] 0.009 | [20] 0.008
